Data: publication PMC4974644
No constants are given. Whether binding was seen depends on the method and setting. Binding seen in cells or lysates may run through a third protein. A yes stands for co-enrichment or nearness to the bait. Other partners may have been found.

Target: T1, SALM4 (Lrfn3), endogenous in mouse forebrain (mouse (endogenous in forebrain)) (UniProt Q8BLY3)
T1 sequence: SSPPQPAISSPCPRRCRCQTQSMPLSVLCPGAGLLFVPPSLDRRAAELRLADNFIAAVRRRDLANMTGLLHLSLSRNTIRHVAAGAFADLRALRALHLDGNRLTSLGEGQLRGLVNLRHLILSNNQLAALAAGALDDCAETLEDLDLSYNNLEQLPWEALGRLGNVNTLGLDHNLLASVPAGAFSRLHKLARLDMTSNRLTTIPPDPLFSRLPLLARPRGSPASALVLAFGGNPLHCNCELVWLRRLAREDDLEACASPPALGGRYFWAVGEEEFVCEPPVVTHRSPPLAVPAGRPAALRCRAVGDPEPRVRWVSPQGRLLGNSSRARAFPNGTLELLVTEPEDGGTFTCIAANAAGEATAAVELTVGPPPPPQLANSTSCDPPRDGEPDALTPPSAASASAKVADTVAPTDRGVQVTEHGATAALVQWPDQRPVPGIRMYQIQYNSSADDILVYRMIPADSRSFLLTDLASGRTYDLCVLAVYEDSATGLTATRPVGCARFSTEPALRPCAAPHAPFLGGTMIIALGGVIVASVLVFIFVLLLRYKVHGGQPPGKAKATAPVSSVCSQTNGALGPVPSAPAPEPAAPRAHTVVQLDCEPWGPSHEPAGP
Experiment: affinity purification with mass spectrometry; mouse forebrain crude synaptosomes (WT and Salm4-/- control, 3 weeks) solubilised in PBS with 0.5% Triton X-100, 0.1% SDS, 0.5 mM EDTA, 0.5 mM EGTA; WGA column eluate immunoprecipitated with SALM4 antibodies (2026) on protein A-Sepharose; bands of a silver-stained gel analysed by LTQ-Orbitrap

binding: binds
B1: SALM2 (Lrfn1), endogenous in mouse forebrain (protein, UniProt Q2WF71 32-766)
chain: QPCPGRCICQNVAPTLTMLCAKTGLLFVPPAIDRRVVELRLTDNFIAAVRRRDFANMTSLVHLTLSRNTIGQVAAGAFADLRALRALHLDSNRLAEVRGDQLRGLGNLRHLILGNNQIRKVESAAFDAFLSTVEDLDLSYNNLEALPWEAVGQMVNLNTLTLDHNLIDHIAEGTFVQLHKLVRLDMTSNRLHKLPPDGLFLRSQGGGPKPPTPLTVSFGGNPLHCNCELLWLRRLTREDDLETCATPEHLTDRYFWSIPEEEFLCEPPLITRQAGGRALVVEGQAVSLRCRAVGDPEPVVHWVAPDGRLLGNSSRTRVRGDGTLDVTITTLRDSGTFTCIASNAAGEATAPVEVCVVPLPLMAPPPAAPPPLTEPGSSDIATPGRPGANDSTSERRLVAAELTSSSVLIRWPAQRPVPGIRMYQVQYNSSADDSLVYRMIPSTSQTFLVNDLAAGRAYDLCVLAVYDDGATALPATRVVGCVQFTTAGDPAPCRPLRAHFLGGTMIIAIGGVIVASVLVFIVLLMIRYKVYGDGDSRRIKGTSRTPPRVSHVCSQTNGAGAQQASAPPAPDRYEALREVAVPAAIEAKAMEAEATSTELEVVLGRSLGGSATSLCLLPSEETSGEESRAMTGPRRSRSGALGPPTSAPPTLALVPGGAPARPRPQQRYSFDGDYGALFQSHSYPRRARRTKRHRSTPHLDGAGGGAAGEDGDLGLGSARARLAFTSTEWMLESTV
